Where a name gives a salt, the structure may show the parent alone. Some of these results come from one statement about several compounds together.
Tested on: kanamycin-resistant strain of E. coli MG1655
Assay: Susceptibility to multiple antibiotics on a single microfluidic device using breakpoint values
Type: cell-based
Conditions: 18 h
From the text: In this Example, a single microfluidic device was used to simultaneously test the susceptibility of the kanamycin-resistant strain of E. coli MG1655 described above to multiple antibiotics using breakpoint values.
In clinical microbiology, a strain is classified as susceptible, intermediate, or resistant based on the relationship of the MIC of an antibiotic to specified ‘breakpoint’ values. Breakpoint values are set by organizations, such as the CLSI, and take into consideration MIC values of wild type strains, pharmacokinetic/pharmacodynamic data, and clinical outcomes. Breakpoint values are available for specific clinically relevant pairings of bacterial species and antibiotics and enable clinical decisions without knowing the exact MIC value.
Specifically, vancomycin, tetracycline, and kanamycin were added to the reaction wells of a single device. The most common breakpoints for vancomycin (susceptible <2 μg/mL, resistant >2 μg/mL), tetracycline (susceptible <1 μg/mL, intermediate=2 μg/mL, resistant >2 μg/mL), and gentamicin (susceptible <2 μg/mL, intermediate=4 μg/mL, resistant >4 μg/mL) were used. As there are no published breakpoints available for kanamycin, the breakpoint values for the structurally related aminoglycoside, gentamicin, against aerobic bacteria was used. A microfluidic device with ten chambers was prepared as described in Example 1 above. […]

Row | Compound | phenotype of the strain by breakpoint values (vancomycin breakpoints) | phenotype of the strain by breakpoint values (gentamicin breakpoints used for kanamycin)
1 | CN[C@H](CC(C)C)C(=O)N[C@H]1C(=O)N[C@@H](CC(N)=O)C(=O)N[C@H]2C(=O)N[C@H]3C(=O)N[C@H](C(=O)N[C@H](C(=O)O)c4cc(O)cc(O)c4-c4cc3ccc4O)[C@H](O)c3ccc(c(Cl)c3)Oc3cc2cc(c3O[C@@H]2O[C@H](CO)[C@@H](O)[C@H](O)[C@H]2O[C@H]2C[C@](C)(N)[C@H](O)[C@H](C)O2)Oc2ccc(cc2Cl)[C@H]1O [vancomycin, vancomycin hydrochloride] | resistant (resistant >2 μg/mL) | 
2 | NC[C@H]1O[C@H](O[C@H]2[C@H](O)[C@@H](O[C@H]3O[C@H](CO)[C@@H](O)[C@H](N)[C@H]3O)[C@H](N)C[C@@H]2N)[C@H](O)[C@@H](O)[C@@H]1O [kanamycin, kanamycin monosulfate] |  | resistant (resistant >4 μg/mL)

From patent US9687845B2, “Self-loading microfluidic device and methods of use” (Wisconsin Alumni Research Foundation, priority 2011, dated 2017)
